Measured values reported in patent publication US9233903B2, “Pharmaceutical substances on the basis of mitochondria-addressed antioxidants” (Mitotech SA, priority 2009, dated 2016).
Some results were stated once for a whole list of compounds, not compound by compound.

System: HeLa and normal human diploid fibroblasts
Test: Protection of cells against H2O2-induced death (apoptosis), Hoechst/PI counting
Format: cell-based

COC1=C(OC)C(=O)C(CCCCCCCCCC[P+](c2ccccc2)(c2ccccc2)c2ccccc2)=C(C)C1=O [MitoQ]
concentration above which pro-oxidant activity (stimulation of H2O2-induced cell death) is manifested: above 0.5 μM
